Results are given in words; binding and its absence hold for the method and conditions named. Binding seen in cells or lysates may run through a third protein. Some entries that bind do so weakly or less than the wild type.
Key:
Assay in all cases: co-IP; 293T cells co-transfected with EGFP-RNF213 WT and 3xFL-RNF213 WT or mutant; lysates subjected to anti-Flag immunoprecipitation, then anti-GFP immunoblotting; 1% NP-40 lysis buffer, 4 h at 4°C
[1] = target: 3x-Flag-tagged RNF213 E2488Q (AAA+ ATPase-inactive mutant) (human) (UniProt Q63HN8)
[2] = target: 3x-Flag-tagged RNF213 I3999A (RING E3-defective mutant) (human) (UniProt Q63HN8)
[3] = target: 3x-Flag-tagged RNF213 R4810K (most prevalent MMD variant) (human) (UniProt Q63HN8)

Protein sequences, listed by entry. Tags and fused reporters are not part of them. Lines headed by an entry give the natural chain unless they say otherwise; changes in a name come on top.
UniProt Q63HN8: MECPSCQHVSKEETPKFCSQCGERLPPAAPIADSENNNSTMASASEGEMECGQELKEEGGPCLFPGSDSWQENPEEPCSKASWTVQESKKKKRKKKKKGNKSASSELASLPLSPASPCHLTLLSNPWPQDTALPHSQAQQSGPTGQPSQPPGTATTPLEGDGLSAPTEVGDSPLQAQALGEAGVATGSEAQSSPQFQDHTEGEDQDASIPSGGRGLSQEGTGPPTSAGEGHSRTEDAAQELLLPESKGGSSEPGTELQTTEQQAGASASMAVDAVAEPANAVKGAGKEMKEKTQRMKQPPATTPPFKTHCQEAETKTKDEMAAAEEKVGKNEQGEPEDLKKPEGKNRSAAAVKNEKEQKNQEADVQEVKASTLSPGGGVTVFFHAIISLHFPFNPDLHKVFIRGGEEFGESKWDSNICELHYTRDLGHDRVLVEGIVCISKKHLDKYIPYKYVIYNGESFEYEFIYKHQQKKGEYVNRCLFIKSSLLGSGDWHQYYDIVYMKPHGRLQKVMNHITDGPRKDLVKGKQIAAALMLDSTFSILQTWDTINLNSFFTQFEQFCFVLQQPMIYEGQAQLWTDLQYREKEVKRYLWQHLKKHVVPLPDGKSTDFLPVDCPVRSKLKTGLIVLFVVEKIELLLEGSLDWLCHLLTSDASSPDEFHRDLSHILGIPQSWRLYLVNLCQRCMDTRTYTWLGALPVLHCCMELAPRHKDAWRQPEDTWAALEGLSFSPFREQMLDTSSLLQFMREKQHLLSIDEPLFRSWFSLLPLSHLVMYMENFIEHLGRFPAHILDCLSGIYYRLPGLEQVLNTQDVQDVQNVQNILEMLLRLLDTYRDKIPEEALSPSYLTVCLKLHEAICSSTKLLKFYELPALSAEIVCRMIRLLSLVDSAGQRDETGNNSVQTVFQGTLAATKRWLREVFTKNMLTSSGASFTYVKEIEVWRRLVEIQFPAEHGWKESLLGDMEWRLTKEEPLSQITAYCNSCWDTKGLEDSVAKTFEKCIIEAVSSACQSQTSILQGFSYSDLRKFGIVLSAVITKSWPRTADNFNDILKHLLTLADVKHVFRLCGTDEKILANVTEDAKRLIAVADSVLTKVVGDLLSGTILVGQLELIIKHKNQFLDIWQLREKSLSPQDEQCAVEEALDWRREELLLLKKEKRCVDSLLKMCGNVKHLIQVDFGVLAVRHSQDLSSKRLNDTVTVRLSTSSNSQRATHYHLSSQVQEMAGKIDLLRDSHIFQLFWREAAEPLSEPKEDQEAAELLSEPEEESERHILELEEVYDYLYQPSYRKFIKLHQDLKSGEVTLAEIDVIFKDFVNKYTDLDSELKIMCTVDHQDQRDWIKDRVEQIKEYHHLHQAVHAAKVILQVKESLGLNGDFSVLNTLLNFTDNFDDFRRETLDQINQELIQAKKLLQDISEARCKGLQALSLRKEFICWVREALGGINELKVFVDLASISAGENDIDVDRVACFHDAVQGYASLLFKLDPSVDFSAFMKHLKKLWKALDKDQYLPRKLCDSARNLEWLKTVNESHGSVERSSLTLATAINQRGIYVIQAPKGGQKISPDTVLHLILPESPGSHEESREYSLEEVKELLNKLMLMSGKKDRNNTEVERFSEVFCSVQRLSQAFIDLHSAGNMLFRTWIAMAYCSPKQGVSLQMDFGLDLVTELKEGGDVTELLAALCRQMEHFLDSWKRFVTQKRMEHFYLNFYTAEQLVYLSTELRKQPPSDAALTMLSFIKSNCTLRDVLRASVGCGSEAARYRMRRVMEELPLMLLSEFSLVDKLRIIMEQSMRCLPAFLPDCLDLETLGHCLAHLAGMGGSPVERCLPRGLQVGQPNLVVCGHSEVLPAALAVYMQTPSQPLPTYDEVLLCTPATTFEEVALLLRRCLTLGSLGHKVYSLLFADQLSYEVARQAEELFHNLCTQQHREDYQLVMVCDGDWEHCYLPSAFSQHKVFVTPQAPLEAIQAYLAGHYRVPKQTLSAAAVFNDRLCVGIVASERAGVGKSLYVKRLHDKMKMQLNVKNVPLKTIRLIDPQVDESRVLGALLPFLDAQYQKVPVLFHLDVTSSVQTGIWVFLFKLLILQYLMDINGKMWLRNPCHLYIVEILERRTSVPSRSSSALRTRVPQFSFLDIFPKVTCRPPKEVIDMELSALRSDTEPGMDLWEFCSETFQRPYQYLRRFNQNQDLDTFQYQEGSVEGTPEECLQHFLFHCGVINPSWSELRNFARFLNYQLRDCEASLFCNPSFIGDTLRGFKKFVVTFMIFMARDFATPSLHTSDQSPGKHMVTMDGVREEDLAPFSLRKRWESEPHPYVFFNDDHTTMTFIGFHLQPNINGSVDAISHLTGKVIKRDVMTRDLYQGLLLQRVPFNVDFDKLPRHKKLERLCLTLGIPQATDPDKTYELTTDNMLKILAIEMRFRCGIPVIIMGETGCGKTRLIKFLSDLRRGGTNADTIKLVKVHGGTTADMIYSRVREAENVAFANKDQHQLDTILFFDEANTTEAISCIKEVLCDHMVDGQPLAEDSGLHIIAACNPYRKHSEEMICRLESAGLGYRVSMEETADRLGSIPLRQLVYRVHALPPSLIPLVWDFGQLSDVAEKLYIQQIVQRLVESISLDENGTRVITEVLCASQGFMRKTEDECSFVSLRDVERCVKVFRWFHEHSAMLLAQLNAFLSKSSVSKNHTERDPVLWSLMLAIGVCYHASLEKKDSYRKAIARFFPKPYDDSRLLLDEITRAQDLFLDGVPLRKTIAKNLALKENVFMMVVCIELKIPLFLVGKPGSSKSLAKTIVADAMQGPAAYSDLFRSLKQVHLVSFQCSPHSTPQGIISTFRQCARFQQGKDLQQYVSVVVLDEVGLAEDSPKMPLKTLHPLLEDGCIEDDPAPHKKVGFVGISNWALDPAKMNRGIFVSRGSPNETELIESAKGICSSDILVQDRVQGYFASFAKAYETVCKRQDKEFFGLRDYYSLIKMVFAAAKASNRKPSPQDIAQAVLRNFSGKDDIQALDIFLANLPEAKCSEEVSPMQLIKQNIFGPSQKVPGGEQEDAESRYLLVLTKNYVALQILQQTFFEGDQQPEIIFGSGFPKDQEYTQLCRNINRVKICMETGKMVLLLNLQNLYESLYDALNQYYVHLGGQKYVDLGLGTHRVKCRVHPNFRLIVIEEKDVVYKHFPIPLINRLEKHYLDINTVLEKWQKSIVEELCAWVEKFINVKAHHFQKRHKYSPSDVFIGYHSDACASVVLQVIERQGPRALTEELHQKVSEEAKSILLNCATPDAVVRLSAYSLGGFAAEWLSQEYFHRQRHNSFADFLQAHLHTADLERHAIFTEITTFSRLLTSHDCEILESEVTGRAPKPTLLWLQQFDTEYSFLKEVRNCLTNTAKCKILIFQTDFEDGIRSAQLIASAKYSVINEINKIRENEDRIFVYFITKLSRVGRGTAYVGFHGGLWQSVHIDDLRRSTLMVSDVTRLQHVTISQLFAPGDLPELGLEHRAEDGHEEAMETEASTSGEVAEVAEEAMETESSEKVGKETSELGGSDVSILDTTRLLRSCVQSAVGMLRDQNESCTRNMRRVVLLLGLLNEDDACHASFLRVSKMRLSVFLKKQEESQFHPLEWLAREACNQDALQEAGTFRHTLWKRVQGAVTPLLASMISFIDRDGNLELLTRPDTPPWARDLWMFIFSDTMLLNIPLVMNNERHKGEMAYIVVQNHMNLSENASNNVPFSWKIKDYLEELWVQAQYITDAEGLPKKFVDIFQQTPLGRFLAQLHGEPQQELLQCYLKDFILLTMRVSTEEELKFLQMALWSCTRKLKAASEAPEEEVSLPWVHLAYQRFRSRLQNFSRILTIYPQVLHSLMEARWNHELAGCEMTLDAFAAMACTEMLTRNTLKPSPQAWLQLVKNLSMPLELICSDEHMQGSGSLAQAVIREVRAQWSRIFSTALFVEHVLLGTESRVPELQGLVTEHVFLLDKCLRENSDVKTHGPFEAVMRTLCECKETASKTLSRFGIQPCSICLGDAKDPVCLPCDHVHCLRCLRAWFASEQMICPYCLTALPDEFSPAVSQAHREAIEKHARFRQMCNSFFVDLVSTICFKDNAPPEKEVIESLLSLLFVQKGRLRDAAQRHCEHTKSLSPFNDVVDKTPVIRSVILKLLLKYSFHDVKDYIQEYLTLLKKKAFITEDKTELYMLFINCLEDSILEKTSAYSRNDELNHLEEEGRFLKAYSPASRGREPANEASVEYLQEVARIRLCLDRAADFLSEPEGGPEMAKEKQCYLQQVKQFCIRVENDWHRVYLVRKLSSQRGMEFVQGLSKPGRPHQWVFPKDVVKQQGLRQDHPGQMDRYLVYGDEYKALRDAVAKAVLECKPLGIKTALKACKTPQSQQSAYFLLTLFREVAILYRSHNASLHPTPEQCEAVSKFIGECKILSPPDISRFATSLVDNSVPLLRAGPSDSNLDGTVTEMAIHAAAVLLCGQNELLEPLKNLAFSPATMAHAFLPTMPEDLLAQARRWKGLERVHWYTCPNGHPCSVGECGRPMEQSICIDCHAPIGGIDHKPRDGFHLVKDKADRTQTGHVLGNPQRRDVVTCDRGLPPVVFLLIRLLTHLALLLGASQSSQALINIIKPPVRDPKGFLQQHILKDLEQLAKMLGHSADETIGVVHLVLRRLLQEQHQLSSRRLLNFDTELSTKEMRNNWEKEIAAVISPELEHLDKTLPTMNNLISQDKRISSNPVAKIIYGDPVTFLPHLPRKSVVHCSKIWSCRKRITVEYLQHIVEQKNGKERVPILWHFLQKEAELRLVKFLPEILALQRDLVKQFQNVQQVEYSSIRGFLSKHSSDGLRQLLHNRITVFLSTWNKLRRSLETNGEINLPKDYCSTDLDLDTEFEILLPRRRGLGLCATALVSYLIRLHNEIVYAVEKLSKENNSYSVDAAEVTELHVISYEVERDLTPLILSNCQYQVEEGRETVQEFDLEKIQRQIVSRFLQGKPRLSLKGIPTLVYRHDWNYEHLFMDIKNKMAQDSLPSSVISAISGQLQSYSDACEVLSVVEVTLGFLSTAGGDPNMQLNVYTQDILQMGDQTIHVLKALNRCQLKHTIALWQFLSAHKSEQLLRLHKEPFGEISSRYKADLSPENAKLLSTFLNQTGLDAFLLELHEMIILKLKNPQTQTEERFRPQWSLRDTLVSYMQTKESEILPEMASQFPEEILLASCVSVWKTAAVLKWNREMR

Measured: binding

EGFP-tagged WT RNF213 (from UniProt Q63HN8 1-5207)
binds: [1] | [2] | [3]
